Data on two compounds can be found in paper PMC3834177, “Investigation into CYP3A4-mediated drug–drug interactions on midostaurin in healthy volunteers” (Cancer Chemotherapy and Pharmacology, 2013).

Series [1] in a line: Midostaurin PK when administered with rifampicin. The conditions noted are these: human, in vivo. As to the method:
These endogenous molecules served as exploratory biomarkers for CYP3A4 activity in vivo [21, 22].
A point estimate and the corresponding 90 % CI for the treatment effect (test vs reference) were calculated. These were anti-logged to obtain the GMR and respective 90 % CI. […] The median difference was estimated with the Hodges–Lehmann estimator and its respective exact two-sided 90 % CI. All formal comparative statistical analyses were performed using SAS software.
The concentration of ketoconazole in plasma was assessed using a validated LC–MS/MS assay with an LLOQ of 50.0 ng/mL (WuXi Pharmatech Co, Ltd, China). The concentration of rifampicin in plasma was measured using a validated LC–MS/MS assay with an LLOQ of 5.0 ng/mL (SGS, Cephac Europe, SAS). Plasma concentrations of midazolam and its metabolite 1′-hydroxymidazolam, which is generated by CYP3A4 and CYP3A5 in humans, were measured using a validated LC–MS/MS assay with an LLOQ of ≈0.100 ng/mL (SGS, Cephac Europe, SAS). The plasma concentration of 4β-hydroxycholesterol was measured using a validated LC–MS/MS assay with an LLOQ of 3.0 ng/mL (SGS, Cephac Europe, SAS). The concentrations of 6β-hydroxycortisol and cortisol in urine were determined using validated LC–MS/MS assays with an LLOQ of 10.0 ng/mL for 6β-hydroxycortisol and 1.0 ng/mL for cortisol. […]

For another series, the system named is CYP3A4/5. Details: method as in earlier work. The conditions noted are these: in vitro; read-out: IC50, CYP3A4/5 activity (midazolam 1′-hydroxylation); cited from earlier work.
For a further series, the system named is mutant FLT3. More on the design: method as in PMID 16857987. The conditions noted are these: in vitro; read-out: half-maximal inhibitory concentration (IC50), mutant FLT3; cited from earlier work.

Regarding `CN(C(=O)c1ccccc1)[C@@H]1C[C@H]2O[C@@](C)([C@@H]1O)n1c3ccccc3c3c4c(c5c6ccccc6n2c5c31)C(=O)NC4` [CGP62221], in series [1], the “median t max prolonged in midostaurin + placebo arm compared with midostaurin + rifampicin arm” value was “twofold”.

For `CO[C@@H]1[C@H](N(C)C(=O)c2ccccc2)C[C@H]2O[C@]1(C)n1c3ccccc3c3c4c(c5c6ccccc6n2c5c31)C(=O)NC4` [Midostaurin], the IC50 in the series with CYP3A4/5 is 1500 nM; with mutant FLT3 it was 10 to 36 nM.
